Values from PubChem BioAssay AID1508587 (Peter MacCallum Cancer Centre, 2020).
The deposit covers about 1,600 reagents; this is a part drawn at random. Of all reagents, 623 (39%) got an active call. 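Calls are for each duplex; lactate ratios contain extreme outliers.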 Entries without a mark were called inactive. Reagents against one gene are numbered here. Further read-outs or replicates are left out here.

- Purpose: 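Follow-up of vemurafenib sensitisers scored by lactate made per cell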 (follow-up of hits)
- Cell system: human WM266.4 melanoma cells with a BRAF V600 mutation
- Reagent: single siRNA against human genes, 25 nM
- Timing: 96 h
- Conditions: vemurafenib 300 nM (about IC25), given 48 h after transfection for 48 h
- Detection: 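Per-cell lactate from absorbance divided by DAPI nucleus counts, compared with and without vemurafenib, relative to non-targeting siRNA, mean of 2 replicates; nuclear counts also give cell number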
- Reading the numbers: lactate per cell, drug vs no drug: higher = less drug-induced drop in lactate per cell
- Rule for the call: 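Enhancer call for any duplex whose drug versus no-drug per-cell lactate ratio is below 0.55 (2 SD beneath non-targeting average); genes confirmed when at least 2 of their 4 duplexes qualify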

no.	target	siRNA no.	lactate per cell, drug vs no drug
1	TCF3 (GeneID 6929)	1	0.62
2	TCF3 (GeneID 6929)	2	0.64
3	TCF3 (GeneID 6929)	3	0.54 (active)
4	TCF3 (GeneID 6929)	4	0.55
5	HSF1 (GeneID 3297)	1	0.33 (active)
6	HSF1 (GeneID 3297)	2	0.34 (active)
7	HSF1 (GeneID 3297)	3	0.51 (active)
8	HSF1 (GeneID 3297)	4	0.66
9	NUP35 (GeneID 129401)	1	0.6
10	NUP35 (GeneID 129401)	2	0.46 (active)
11	NUP35 (GeneID 129401)	3	0.26 (active)
12	NUP35 (GeneID 129401)	4	0.78
13	PHACTR3 (GeneID 116154)	1	0.54 (active)
14	PHACTR3 (GeneID 116154)	2	0.53 (active)
15	PHACTR3 (GeneID 116154)	3	0.57
16	PHACTR3 (GeneID 116154)	4	0.62
17	SPDYE1 (GeneID 285955)	1	0.47 (active)
18	SPDYE1 (GeneID 285955)	2	0.63
19	SPDYE1 (GeneID 285955)	3	0.83
20	SPDYE1 (GeneID 285955)	4	0.68
21	GOLGA6L9 (GeneID 440295)	1	0.53 (active)
22	GOLGA6L9 (GeneID 440295)	2	0.46 (active)
23	GOLGA6L9 (GeneID 440295)	3	0.42 (active)
24	GOLGA6L9 (GeneID 440295)	4	0.53 (active)
25	STARD5 (GeneID 80765)	1	0.74
26	STARD5 (GeneID 80765)	2	0.64
27	STARD5 (GeneID 80765)	3	0.96
28	STARD5 (GeneID 80765)	4	0.72
29	CD164 (GeneID 8763)	1	0.57
30	CD164 (GeneID 8763)	2	0.67
31	CD164 (GeneID 8763)	3	0.44 (active)
32	CD164 (GeneID 8763)	4	0.58
33	GPR19 (GeneID 2842)	1	0.45 (active)
34	GPR19 (GeneID 2842)	2	0.64
35	GPR19 (GeneID 2842)	3	0.76
36	GPR19 (GeneID 2842)	4	0.62

3 entries from above, reformatted.
{"target":"SPDYE1 (GeneID 285955)","siRNA no.":3,"lactate per cell, drug vs no drug":0.83}
{"target":"SPDYE1 (GeneID 285955)","siRNA no.":4,"lactate per cell, drug vs no drug":0.68}
{"target":"GOLGA6L9 (GeneID 440295)","siRNA no.":1,"lactate per cell, drug vs no drug":"0.53 (active)"}
